Data from the primary screen of doi:10.1371/journal.pone.0140310, rounded.

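The test systems are human melanoma cell lines, treated with a pair of drugs for 72 h and then stained and imaged. Each value is the count of nuclei relative to DMSO-treated wells, in %, so that 100 equals the control. Every drug was used at one fixed concentration, the higher of two screened. The file gives one value for each pair and line, without errors, so small differences may be noise.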
An unselected part of the screen is shown.
An entry leaves out what has no value listed here.

All values are for the listed drug together with CX-4945 (2 µM): O=C(O)c1ccc2c(c1)nc(Nc1cccc(Cl)c1)c1ccncc12

Drugs:
Src-I1 (10 µM): COc1cc2ncnc(Nc3ccc(Oc4ccccc4)cc3)c2cc1OC
U73122 (2 µM): COc1ccc2c(c1)CCC1C2CCC2(C)C(NCCCCCCN3C(=O)C=CC3=O)CCC12 (stereo not given)
vatalanib (10 µM): Clc1ccc(Nc2nnc(Cc3ccncc3)c3ccccc23)cc1
PLX4720 (0.4 µM): CCCS(=O)(=O)Nc1ccc(F)c(C(=O)c2c[nH]c3ncc(Cl)cc23)c1F
bortezomib (0.005 µM): CC(C)C[C@H](NC(=O)[C@H](Cc1ccccc1)NC(=O)c1cnccn1)B(O)O
GW9662 (10 µM): O=C(Nc1ccccc1)c1cc([N+](=O)[O-])ccc1Cl
PF-562271 (0.4 µM): CN(c1ncccc1CNc1nc(Nc2ccc3c(c2)CC(=O)N3)ncc1C(F)(F)F)S(C)(=O)=O
embelin (6 µM): CCCCCCCCCCCC1=C(O)C(=O)C=C(O)C1=O
sorafenib (2 µM): CNC(=O)c1cc(Oc2ccc(NC(=O)Nc3ccc(Cl)c(C(F)(F)F)c3)cc2)ccn1
stibogluconate (10 µM): O=C(O)[C@@H]1[O][Sb](=[O])([O][Sb]2(=[O])[O][C@H]([C@H](O)CO)[C@H](O)[C@H](C(=O)O)[O]2)[O][C@H]([C@H](O)CO)[C@@H]1O (stereo not given in full)
pazopanib (2 µM): Cc1ccc(Nc2nccc(N(C)c3ccc4c(C)n(C)nc4c3)n2)cc1S(N)(=O)=O
darinaparsin (2 µM): C[As](C)SC[C@H](NC(=O)CC[C@H](N)C(=O)O)C(=O)NCC(=O)O
GW441756 (2 µM): Cn1cc(/C=C2\C(=O)Nc3cccnc32)c2ccccc21
palbociclib (0.2 µM): CC(=O)c1c(C)c2cnc(Nc3ccc(N4CCNCC4)cn3)nc2n(C2CCCC2)c1=O
FH535 (5 µM): Cc1cc([N+](=O)[O-])ccc1NS(=O)(=O)c1cc(Cl)ccc1Cl
docetaxel (0.0005 µM): CC(=O)O[C@@]12CO[C@@H]1C[C@H](O)[C@@]1(C)C(=O)[C@H](O)C3=C(C)[C@@H](OC(=O)[C@H](O)[C@@H](NC(=O)OC(C)(C)C)c4ccccc4)C[C@@](O)([C@@H](OC(=O)c4ccccc4)[C@H]21)C3(C)C
CP-690550 (5 µM): C[C@@H]1CCN(C(=O)CC#N)C[C@@H]1N(C)c1ncnc2[nH]ccc12
AZD7762 (0.1 µM): NC(=O)Nc1cc(-c2cccc(F)c2)sc1C(=O)N[C@H]1CCCNC1
vismodegib (5 µM): CS(=O)(=O)c1ccc(C(=O)Nc2ccc(Cl)c(-c3ccccn3)c2)c(Cl)c1
GW0742 (10 µM): Cc1cc(SCc2sc(-c3ccc(C(F)(F)F)c(F)c3)nc2C)ccc1OCC(=O)O
nilutamide (5 µM): CC1(C)NC(=O)N(c2ccc([N+](=O)[O-])c(C(F)(F)F)c2)C1=O
STA-4783 (0.03 µM): CN(NC(=O)CC(=O)NN(C)C(=S)c1ccccc1)C(=S)c1ccccc1
OSU-03012 (5 µM): NCC(=O)Nc1ccc(-n2nc(C(F)(F)F)cc2-c2ccc3c(ccc4ccccc43)c2)cc1
cisplatin (8 µM): N.N.[Cl][Pt][Cl]

{"partner": "bortezomib", "C32": 28.2, "COLO 792": 29.0, "COLO 800": 44.0, "COLO 829": 21.5, "WM451Lu": 16.3}
{"partner": "GW9662", "C32": 85.2, "COLO 792": 60.5, "COLO 800": 31.4, "COLO 829": 29.4, "WM451Lu": 59.3, "WM3619": 52.4}
{"partner": "nilutamide", "C32": 89.8, "COLO 792": 77.4, "COLO 800": 92.3, "COLO 829": 62.3, "WM451Lu": 86.2, "WM3619": 75.0}
{"partner": "Src-I1", "C32": 110, "COLO 792": 58.4, "COLO 800": 123, "COLO 829": 78.3, "WM451Lu": 74.2, "WM3619": 71.0}
{"partner": "vatalanib", "C32": 106, "COLO 792": 38.0, "COLO 800": 73.0, "COLO 829": 39.2, "WM451Lu": 89.5, "WM3619": 60.6}
{"partner": "palbociclib", "C32": 63.5, "COLO 792": 36.0, "COLO 800": 123, "COLO 829": 40.1, "WM451Lu": 45.1, "WM3619": 54.7}
{"partner": "OSU-03012", "C32": 114, "COLO 792": 61.8, "COLO 800": 38.3, "COLO 829": 50.3, "WM451Lu": 57.9, "WM3619": 14.5}
{"partner": "pazopanib", "C32": 96.7, "COLO 792": 56.5, "COLO 800": 74.3, "COLO 829": 39.6, "WM451Lu": 65.3, "WM3619": 148}
{"partner": "GW441756", "C32": 85.6, "COLO 792": 88.3, "COLO 800": 63.2, "COLO 829": 53.6, "WM451Lu": 65.6, "WM3619": 74.8}
{"partner": "PLX4720", "C32": 65.5, "COLO 792": 69.0, "COLO 800": 63.4, "COLO 829": 49.4, "WM451Lu": 49.8, "WM3619": 64.0}
{"partner": "embelin", "C32": 112, "COLO 792": 88.1, "COLO 800": 86.9, "COLO 829": 68.5, "WM451Lu": 81.7, "WM3619": 77.6}
{"partner": "docetaxel", "C32": 65.3, "COLO 792": 19.7, "COLO 800": 22.0, "COLO 829": 20.7, "WM451Lu": 31.6, "WM3619": 40.7}
{"partner": "sorafenib", "C32": 85.9, "COLO 792": 87.8, "COLO 800": 81.5, "COLO 829": 64.0, "WM451Lu": 68.3, "WM3619": 72.0}
{"partner": "AZD7762", "C32": 56.4, "COLO 792": 52.2, "COLO 800": 82.2, "COLO 829": 54.1, "WM451Lu": 70.6, "WM3619": 13.5}
{"partner": "stibogluconate", "C32": 98.8, "COLO 792": 56.6, "COLO 800": 57.4, "COLO 829": 51.8, "WM451Lu": 85.5, "WM3619": 75.1}
{"partner": "cisplatin", "C32": 92.2, "COLO 792": 64.2, "COLO 800": 22.2, "COLO 829": 64.8, "WM451Lu": 85.7, "WM3619": 76.9}
{"partner": "darinaparsin", "C32": 84.8, "COLO 792": 65.6, "COLO 800": 47.5, "COLO 829": 46.0, "WM451Lu": 59.9, "WM3619": 57.9}
{"partner": "vismodegib", "C32": 90.6, "COLO 792": 72.3, "COLO 800": 67.5, "COLO 829": 54.1, "WM451Lu": 65.8, "WM3619": 78.6}
{"partner": "STA-4783", "C32": 33.9, "COLO 792": 42.9, "COLO 800": 5.0, "COLO 829": 36.0, "WM451Lu": 110, "WM3619": 4.4}
{"partner": "U73122", "C32": 81.2, "COLO 792": 70.2, "COLO 800": 31.0, "COLO 829": 34.5, "WM451Lu": 79.2, "WM3619": 27.4}
{"partner": "FH535", "C32": 84.6, "COLO 792": 56.6, "COLO 800": 80.0, "COLO 829": 67.6, "WM451Lu": 86.8, "WM3619": 81.4}
{"partner": "CP-690550", "C32": 112, "COLO 792": 68.1, "COLO 800": 71.0, "COLO 829": 79.3, "WM451Lu": 114, "WM3619": 79.3}
{"partner": "PF-562271", "C32": 68.2, "COLO 792": 57.2, "COLO 800": 73.6, "COLO 829": 52.5, "WM451Lu": 56.4, "WM3619": 62.1}
{"partner": "GW0742", "C32": 118, "COLO 792": 61.2, "COLO 800": 74.9, "COLO 829": 38.7, "WM451Lu": 94.8, "WM3619": 70.2}

The last 2 entries again:

Partner,C32,COLO 792,COLO 800,COLO 829,WM451Lu,WM3619
PF-562271,68.2,57.2,73.6,52.5,56.4,62.1
GW0742,118,61.2,74.9,38.7,94.8,70.2